From publication PMC7417866, “Gating Properties of Mutant Sodium Channels and Responses to Sodium Current Inhibitors Predict Mexiletine-Sensitive Mutations of Long QT Syndrome 3” (Frontiers in Pharmacology, 2020)

Amino acid sequences for entries named in this document (tags omitted).
UniProt Q14524, whole entry R1623Q: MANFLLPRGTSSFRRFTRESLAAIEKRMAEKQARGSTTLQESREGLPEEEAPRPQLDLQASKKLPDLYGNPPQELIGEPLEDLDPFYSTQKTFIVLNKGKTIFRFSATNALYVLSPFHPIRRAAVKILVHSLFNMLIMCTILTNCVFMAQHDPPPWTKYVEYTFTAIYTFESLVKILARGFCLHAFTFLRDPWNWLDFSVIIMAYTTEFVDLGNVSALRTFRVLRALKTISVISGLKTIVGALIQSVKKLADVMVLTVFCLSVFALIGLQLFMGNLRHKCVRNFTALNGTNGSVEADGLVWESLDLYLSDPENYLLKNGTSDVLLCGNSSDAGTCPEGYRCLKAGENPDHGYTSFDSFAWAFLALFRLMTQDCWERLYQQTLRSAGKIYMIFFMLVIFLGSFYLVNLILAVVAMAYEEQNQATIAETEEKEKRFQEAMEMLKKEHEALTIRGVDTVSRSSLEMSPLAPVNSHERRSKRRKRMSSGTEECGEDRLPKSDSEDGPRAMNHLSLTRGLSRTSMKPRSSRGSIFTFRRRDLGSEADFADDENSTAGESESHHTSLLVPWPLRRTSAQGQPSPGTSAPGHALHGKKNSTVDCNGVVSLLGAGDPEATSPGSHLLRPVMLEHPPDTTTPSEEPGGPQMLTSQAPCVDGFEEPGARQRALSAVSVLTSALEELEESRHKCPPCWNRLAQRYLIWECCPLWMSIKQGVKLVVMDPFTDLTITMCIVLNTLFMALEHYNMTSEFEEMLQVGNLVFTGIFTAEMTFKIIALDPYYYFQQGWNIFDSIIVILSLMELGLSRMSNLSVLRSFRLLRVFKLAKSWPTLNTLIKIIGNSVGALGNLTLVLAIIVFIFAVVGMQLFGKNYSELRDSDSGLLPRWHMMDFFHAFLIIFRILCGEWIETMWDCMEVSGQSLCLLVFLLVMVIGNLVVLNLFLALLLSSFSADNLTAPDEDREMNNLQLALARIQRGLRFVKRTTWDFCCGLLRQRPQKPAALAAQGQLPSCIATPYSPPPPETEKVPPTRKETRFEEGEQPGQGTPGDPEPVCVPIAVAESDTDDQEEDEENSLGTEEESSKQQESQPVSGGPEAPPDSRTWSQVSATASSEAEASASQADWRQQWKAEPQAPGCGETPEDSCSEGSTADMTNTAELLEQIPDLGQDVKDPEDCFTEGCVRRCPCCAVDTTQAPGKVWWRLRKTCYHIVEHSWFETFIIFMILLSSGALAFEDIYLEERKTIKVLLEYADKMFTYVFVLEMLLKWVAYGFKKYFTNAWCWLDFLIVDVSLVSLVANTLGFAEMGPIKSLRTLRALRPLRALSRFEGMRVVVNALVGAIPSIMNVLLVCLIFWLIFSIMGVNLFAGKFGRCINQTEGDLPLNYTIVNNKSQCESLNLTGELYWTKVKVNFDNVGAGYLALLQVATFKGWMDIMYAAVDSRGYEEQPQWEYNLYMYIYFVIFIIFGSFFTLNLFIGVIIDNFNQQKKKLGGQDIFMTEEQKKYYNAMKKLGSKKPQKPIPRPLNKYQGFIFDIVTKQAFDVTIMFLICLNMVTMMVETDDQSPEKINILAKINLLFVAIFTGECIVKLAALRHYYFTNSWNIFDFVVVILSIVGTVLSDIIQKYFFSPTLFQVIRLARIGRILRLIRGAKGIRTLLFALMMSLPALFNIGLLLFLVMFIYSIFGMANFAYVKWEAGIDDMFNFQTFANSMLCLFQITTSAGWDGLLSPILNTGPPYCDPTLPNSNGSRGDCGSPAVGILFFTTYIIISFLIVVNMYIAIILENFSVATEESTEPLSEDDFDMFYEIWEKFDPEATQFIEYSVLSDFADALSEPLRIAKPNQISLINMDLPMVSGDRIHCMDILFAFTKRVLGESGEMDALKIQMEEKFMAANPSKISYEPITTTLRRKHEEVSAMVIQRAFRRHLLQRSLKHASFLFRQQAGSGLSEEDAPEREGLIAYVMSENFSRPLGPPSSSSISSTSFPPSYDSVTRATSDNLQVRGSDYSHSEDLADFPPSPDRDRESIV
UniProt Q14524, whole entry N1325S: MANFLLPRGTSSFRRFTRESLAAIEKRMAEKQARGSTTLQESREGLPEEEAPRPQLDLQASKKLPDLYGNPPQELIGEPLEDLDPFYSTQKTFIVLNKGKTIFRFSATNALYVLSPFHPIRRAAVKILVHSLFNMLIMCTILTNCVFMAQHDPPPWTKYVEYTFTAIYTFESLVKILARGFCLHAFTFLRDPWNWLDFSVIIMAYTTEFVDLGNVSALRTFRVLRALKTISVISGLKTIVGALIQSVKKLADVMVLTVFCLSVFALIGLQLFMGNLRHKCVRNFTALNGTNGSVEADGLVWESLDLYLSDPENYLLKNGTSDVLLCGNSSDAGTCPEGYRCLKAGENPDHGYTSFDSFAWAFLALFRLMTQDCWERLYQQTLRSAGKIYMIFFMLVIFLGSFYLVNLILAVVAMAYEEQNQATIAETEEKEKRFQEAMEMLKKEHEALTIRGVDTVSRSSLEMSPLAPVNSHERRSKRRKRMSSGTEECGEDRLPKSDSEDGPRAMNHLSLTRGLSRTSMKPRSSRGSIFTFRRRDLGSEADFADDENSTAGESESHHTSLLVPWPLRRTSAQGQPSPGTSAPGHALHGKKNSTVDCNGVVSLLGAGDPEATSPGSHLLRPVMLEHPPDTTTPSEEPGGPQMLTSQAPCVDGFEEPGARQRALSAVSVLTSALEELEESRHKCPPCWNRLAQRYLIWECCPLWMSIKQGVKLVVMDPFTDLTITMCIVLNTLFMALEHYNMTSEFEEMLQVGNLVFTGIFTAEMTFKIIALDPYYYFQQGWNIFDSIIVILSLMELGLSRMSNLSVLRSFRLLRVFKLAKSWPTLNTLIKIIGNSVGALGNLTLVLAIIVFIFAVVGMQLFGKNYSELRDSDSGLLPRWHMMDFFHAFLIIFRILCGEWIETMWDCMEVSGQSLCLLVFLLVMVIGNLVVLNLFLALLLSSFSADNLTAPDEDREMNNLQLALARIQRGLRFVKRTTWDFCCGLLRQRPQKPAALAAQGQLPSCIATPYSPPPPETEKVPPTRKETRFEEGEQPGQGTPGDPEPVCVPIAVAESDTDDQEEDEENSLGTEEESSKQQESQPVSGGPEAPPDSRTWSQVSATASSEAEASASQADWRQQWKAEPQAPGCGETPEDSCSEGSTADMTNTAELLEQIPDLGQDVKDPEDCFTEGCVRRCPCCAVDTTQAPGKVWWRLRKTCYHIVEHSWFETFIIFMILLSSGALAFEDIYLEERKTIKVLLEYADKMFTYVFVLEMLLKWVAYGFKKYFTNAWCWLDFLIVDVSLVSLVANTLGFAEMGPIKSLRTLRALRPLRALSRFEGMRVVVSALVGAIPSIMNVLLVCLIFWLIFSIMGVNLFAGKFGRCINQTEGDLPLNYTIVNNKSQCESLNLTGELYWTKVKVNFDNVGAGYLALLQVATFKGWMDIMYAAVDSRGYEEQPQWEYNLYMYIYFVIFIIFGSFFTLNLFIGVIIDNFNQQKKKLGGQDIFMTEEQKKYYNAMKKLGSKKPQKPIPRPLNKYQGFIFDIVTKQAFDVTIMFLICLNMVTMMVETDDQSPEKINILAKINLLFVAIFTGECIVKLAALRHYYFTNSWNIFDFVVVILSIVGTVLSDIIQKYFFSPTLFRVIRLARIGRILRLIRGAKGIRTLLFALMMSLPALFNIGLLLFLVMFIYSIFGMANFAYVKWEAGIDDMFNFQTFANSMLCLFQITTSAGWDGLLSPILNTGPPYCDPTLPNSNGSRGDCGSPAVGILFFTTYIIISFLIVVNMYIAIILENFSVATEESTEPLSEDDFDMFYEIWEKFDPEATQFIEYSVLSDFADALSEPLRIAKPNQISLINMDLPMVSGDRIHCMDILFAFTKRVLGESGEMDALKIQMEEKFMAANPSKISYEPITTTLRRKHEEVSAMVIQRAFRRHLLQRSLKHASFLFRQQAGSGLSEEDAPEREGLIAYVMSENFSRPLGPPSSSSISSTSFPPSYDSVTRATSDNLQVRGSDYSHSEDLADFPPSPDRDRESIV
UniProt Q14524, whole entry M1652R: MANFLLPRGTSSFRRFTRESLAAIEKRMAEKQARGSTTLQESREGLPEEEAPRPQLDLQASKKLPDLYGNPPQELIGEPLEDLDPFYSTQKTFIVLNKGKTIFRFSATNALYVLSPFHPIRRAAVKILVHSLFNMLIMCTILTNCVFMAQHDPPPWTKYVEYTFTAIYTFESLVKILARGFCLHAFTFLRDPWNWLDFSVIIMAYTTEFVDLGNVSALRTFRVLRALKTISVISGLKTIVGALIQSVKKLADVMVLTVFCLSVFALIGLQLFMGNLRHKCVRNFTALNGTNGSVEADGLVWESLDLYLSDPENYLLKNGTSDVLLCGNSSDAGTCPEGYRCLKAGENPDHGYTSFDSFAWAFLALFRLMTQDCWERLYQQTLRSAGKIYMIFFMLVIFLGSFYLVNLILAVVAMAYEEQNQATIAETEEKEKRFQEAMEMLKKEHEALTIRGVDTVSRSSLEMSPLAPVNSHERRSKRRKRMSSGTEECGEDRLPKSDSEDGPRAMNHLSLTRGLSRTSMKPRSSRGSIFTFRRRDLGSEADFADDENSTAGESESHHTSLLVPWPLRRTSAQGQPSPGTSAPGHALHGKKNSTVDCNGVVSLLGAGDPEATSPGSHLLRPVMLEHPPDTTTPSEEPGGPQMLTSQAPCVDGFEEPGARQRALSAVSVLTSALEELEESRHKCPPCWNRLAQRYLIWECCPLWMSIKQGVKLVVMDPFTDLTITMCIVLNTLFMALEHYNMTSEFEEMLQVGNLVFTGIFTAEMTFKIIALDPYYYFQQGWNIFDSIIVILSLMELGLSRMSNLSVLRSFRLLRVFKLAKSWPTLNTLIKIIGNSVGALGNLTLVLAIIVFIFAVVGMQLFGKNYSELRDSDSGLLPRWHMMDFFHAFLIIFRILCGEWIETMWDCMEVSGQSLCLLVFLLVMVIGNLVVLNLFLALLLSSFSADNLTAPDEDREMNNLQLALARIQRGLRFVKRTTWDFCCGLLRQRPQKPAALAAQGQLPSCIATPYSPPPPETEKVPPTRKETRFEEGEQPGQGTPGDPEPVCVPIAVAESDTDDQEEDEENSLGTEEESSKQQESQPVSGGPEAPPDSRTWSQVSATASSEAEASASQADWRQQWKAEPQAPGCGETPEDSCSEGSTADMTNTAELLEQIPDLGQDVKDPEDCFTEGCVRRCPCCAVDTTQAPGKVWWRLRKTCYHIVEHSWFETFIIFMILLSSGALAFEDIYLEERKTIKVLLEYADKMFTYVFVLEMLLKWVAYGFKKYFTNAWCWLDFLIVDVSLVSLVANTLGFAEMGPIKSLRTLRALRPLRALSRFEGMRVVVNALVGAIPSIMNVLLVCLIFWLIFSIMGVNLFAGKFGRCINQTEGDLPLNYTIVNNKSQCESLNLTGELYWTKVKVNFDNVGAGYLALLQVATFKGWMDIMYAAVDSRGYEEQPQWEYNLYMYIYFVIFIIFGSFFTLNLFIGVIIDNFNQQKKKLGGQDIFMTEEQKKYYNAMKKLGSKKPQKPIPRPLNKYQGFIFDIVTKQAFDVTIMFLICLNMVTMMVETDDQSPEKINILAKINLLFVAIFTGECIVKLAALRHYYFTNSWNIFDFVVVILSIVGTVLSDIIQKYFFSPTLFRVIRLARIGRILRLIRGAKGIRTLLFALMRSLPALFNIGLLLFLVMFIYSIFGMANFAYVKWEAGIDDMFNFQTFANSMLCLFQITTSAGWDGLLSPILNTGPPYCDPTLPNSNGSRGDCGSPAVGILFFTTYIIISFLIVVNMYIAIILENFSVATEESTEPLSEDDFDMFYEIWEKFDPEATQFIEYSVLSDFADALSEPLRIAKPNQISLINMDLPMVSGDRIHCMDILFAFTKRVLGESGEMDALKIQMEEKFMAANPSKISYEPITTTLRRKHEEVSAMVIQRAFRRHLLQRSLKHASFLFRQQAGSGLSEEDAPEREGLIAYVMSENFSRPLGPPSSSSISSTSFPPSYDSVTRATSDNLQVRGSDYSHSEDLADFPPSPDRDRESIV

Tests used:
Experiment in all cases: whole-cell patch clamp, late INa inhibition
Format in all cases: cell-based
[1] = biological target: T1, Nav1.5 (SCN5A) with beta-1 subunit (SCN1B) (Homo sapiens, UniProt Q14524, R1623Q)
T1 construct: full-length SCN5A cDNA in pcDNA3.1 co-transfected with SCN1B cDNA (equal amounts) and GFP reporter plasmid in HEK293 cells; with Sodium channel regulatory subunit beta-1
Text: (§1) whole-cell patch clamp, late INa inhibition on Nav1.5 (SCN5A) with beta-1 subunit (SCN1B)

[2] = biological target: T2, Nav1.5 (SCN5A) with beta-1 subunit (SCN1B) (Homo sapiens, UniProt Q14524, N1325S)
T2 construct: full-length SCN5A cDNA in pcDNA3.1 co-transfected with SCN1B cDNA (equal amounts) and GFP reporter plasmid in HEK293 cells; with Sodium channel regulatory subunit beta-1
Text: as §1

[3] = biological target: T3, Nav1.5 (SCN5A) with beta-1 subunit (SCN1B) (Homo sapiens, UniProt Q14524, M1652R)
T3 construct: full-length SCN5A cDNA in pcDNA3.1 co-transfected with SCN1B cDNA (equal amounts) and GFP reporter plasmid in HEK293 cells; with Sodium channel regulatory subunit beta-1
Text: as §1

CC(C)NCC(O)COc1cccc2ccccc12 (stereo not drawn) [propranolol] showed an IC50 [1] of 23.1 ± 2.35 µM, an IC50 [2] of 17.6 ± 1.81 µM and an IC50 [3] of 45 ± 5.69 µM.
